Data reported in PubChem BioAssay AID624297 (National Center for Advancing Translational Sciences (NCATS), 2012).
About 6,200 (1.8%) of roughly 340,000 compounds were called active. This list was built around the results that the source calls inconclusive (neither active nor inactive); the mix of calls is not that of the screen. The call rests on the fitted dose curve; in most records, active means well fitted activation curve with a large enough effect; inconclusive means small, poorly fitted or top-dose-only effect; inactive means no such curve, though single readings can be large or run the other way. Potencies beside an inconclusive call are fits to weak or partial responses and may not hold up.

Assay: A quantitative high throughput screen for small molecules that induce DNA re-replication in SW480 colon adenocarcinoma cells. Further: nearly all actives have a fitted effect of over 55% in size.
Conditions: Hoechst DNA content imaging, 48 h; series mostly up to 46.1 µM
Summary of the method: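 250 cells/well; 23 nL cpd via pin tool; 48 hr, 37 C, 5% CO2; Hoechst 40 min; imager read of total nuclear intensity, ex 405/em 500-530 nm.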
Potency means the concentration at half of the fitted maximal effect.

| SMILES | Potency |
| --- | --- |
| O=C(NCc1cccs1)C1CCC(=O)N1C1CCCCC1 (centres undefined) | inconclusive: 18.4 µM [activator, single point] |
| COCCN(CC(=O)NC1CCCCC1)C(=O)/C=C/C(=O)c1ccc(OC)cc1O | inconclusive: 5.8 µM [activator, full curve] |
| COc1cc(-c2nc3ccc4ccccc4c3c3c2CCC3)cc(OC)c1OC | inactive |
| O=C(CN1CCN(Cc2ccccc2)CC1)N/N=C/c1ccccc1F | inconclusive: 11.6 µM [activator, partial curve, poor fit] |
| Cc1ccc(C(=O)CSc2nsc(C)c2C#N)cc1 | inactive |
| COc1ccc(COc2ccccc2C(=O)Nc2ccccn2)cc1[N+](=O)[O-] | inactive |
| CCN(CC(=O)Nc1ccccc1C(F)(F)F)C(=O)CCSc1ccc(F)cc1 | inactive |
| O=C(COc1ccc2c(-c3ccccc3)cc(=O)oc2c1)NCC(O)c1ccccc1 (centres undefined) | inconclusive: 25.9 µM [activator, single point] |
| O=C(c1cccc(C(F)(F)F)c1)N1CCOc2ccccc21 | inactive |
| C(=N\Nc1nc2ccccc2s1)/c1ccccn1 | inconclusive: 0.58 µM [activator, partial curve] |
| CCOC(=O)C1=C(COC(=O)CCNS(=O)(=O)c2ccc(C)c(C)c2)NC(=O)NC1C (centres undefined) | inactive |
| CN(C)c1ccc(CN(CC2CCCO2)C(=O)c2cccs2)cc1 (centres undefined) | inconclusive: 3.26 µM [activator, partial curve, poor fit] |
| CCCCCn1c(=O)[nH]c2cc(C(=O)NCCCN3CCCCC3CC)ccc2c1=O (centres undefined) | inconclusive: 29.1 µM [activator, single point] |
| CCOC(=O)c1c(-c2ccccc2)c2cc(OC)ccc2n1CCCN(C)C | inconclusive: 11.6 µM [activator, partial curve] |
| O=C(O)CCN1C(=O)C2C3c4ccccc4C(c4ccccc43)[C@@H]2C1=O (some centres undefined) | inconclusive: 20.6 µM [activator, single point] |
| CCCCCCSc1cccc(-c2nc3cc(C)ccn3c2NC2CCCCC2)c1 | inconclusive: 20.6 µM [activator, partial curve, poor fit] |
| CN(C)S(=O)(=O)c1ccc2c(c1)nc(CCC(=O)Nc1ccc(N3CCOCC3)cc1)n2C | inconclusive: 32.6 µM [activator, single point] |
| CC1=C(C(=O)OC(C)C)C(c2cccc(F)c2)n2ncnc2N1 (centres undefined) | inactive |
| COc1ccc2[nH]cc(CCNC(=O)Nc3ccccc3)c2c1 | inactive |
| Cc1c(Cl)cccc1NC(=O)NCc1ccccn1 | inactive |
| Nc1ccc(Br)c2cccnc12 | inconclusive: 0.0291 µM [activator, full curve, poor fit] |
| COC(=O)[C@]1(Cc2ccccc2)N[C@H](CN(C)C(=O)NC(C)C)[C@@H]2C(=O)N(Cc3ccccc3)C(=O)[C@@H]21 | inconclusive: 0.0092 µM [activator, full curve, poor fit] |
| CC(C)c1ccc(NC(=O)NCc2cccnc2)cc1 | inactive |

| SMILES | Potency |
| --- | --- |
| CC(C)(C)c1nnc(NC(=O)c2cccnc2)s1 | inconclusive: 2.06 µM [activator, partial curve, poor fit] |
| Cc1onc(NC(=O)c2ccc([N+](=O)[O-])o2)c1Br | inconclusive: 23.1 µM [activator, single point] |
| O=C(N/N=C/c1ccc(N2CCCCC2)o1)c1ccccc1 | inconclusive: 18.4 µM [activator, partial curve] |
| CSc1nc(N)nc2c1ncn2CC(=O)N[C@H](C)c1cccc2ccccc12 | inconclusive: 2.06 µM [activator, single point] |
| CCOC(=O)C(=O)NCC(c1cccs1)S(=O)(=O)c1ccc(C)cc1 (centres undefined) | inactive |
| C=Cc1ncc(OC)c2c1[nH]c1ccccc12 | inconclusive: 18.4 µM [activator, partial curve, poor fit] |
| COc1cc(/C=N/N(c2ccccc2)c2ccccc2)ccc1O | inconclusive: 5.8 µM [activator, partial curve] |
| Cc1cc(N2CCN(Cc3nc(-c4ccc(F)cc4)oc3C)CC2)cc(C)n1 | inconclusive: 18.4 µM [activator, partial curve, poor fit] |
| CC(C)c1ccc(NC(=O)C2CCC(CNC(=O)[C@@H]3Cc4ccccc4CN3)CC2)cc1 (some centres undefined) | inconclusive: 29.1 µM [activator, single point] |
| COc1ccc(C)cc1NC(=O)C(=O)N1CCCC1 | inconclusive: 29.1 µM [activator, single point] |
| S=c1[nH]nc(-c2ccc(Br)cc2)n1Cc1ccco1 | inactive |
| O=C(CCC(=O)c1ccc(Cl)s1)Nc1ncccc1O | inconclusive: 6.51 µM [activator, single point] |
| CC1(C)OC(=CC=Nc2ccc(Cl)cc2)OC1(C)C | inconclusive: 23.1 µM [activator, single point] |
| O=C(CC1CCCCC1)N1CCN(c2ccccn2)CC1 | inactive |
| Cc1cccc(NC(=O)CN2C(=O)S/C(=C\c3ccccn3)C2=O)c1 | inconclusive: 5.17 µM [activator, full curve] |
| O=C(CN1C(=O)/C(=C/c2ccc(C(F)(F)F)cc2)Sc2ccccc21)NCCCN1CCOCC1 | inconclusive: 0.164 µM [activator, full curve, poor fit] |
| COc1cccc(N2CC(NC(=O)c3ccc4ccccc4c3)CC2=O)c1 (centres undefined) | inconclusive: 29.1 µM [activator, single point] |
| CC1CCCC(NC(=O)/C=C/c2c(F)cccc2Cl)C1C (centres undefined) | inactive |
| CC(=O)c1ccc(OCC(O)CN2CCN(S(=O)(=O)c3c(C)c(C)cc(C)c3C)CC2)cc1 (centres undefined) | inconclusive: 25.9 µM [activator, single point] |
| COc1ccccc1N=C1NC(=O)/C(=C/c2ccc(N(C)C)cc2)S1 | active: 4.11 µM |
| O=C(CCNC(=O)c1ccccc1Cl)Nc1ccccc1N1CCCC1 | inactive |
| Cc1cccc(NC(=O)/C(C#N)=C/c2cn(CC(=O)NCc3ccco3)c3ccccc23)c1 | inconclusive: 1.64 µM [activator, partial curve, poor fit] |
| COc1cc(C(=O)Nc2ccc(C(=O)c3cccs3)cc2)cc(OC)c1OC | inactive |

Quoted at random: 3 entries already listed, in no set order.

| SMILES | Potency |
| --- | --- |
| CC(C)(C)c1nnc(NC(=O)c2cccnc2)s1 | inconclusive: 2.06 µM [activator, partial curve, poor fit] |
| Cc1c(Cl)cccc1NC(=O)NCc1ccccn1 | inactive |
| O=C(CCC(=O)c1ccc(Cl)s1)Nc1ncccc1O | inconclusive: 6.51 µM [activator, single point] |

Next entries follow.

| SMILES | Potency |
| --- | --- |
| O=C(CN1C(=O)NC2(CCCC2)C1=O)OCCOc1ccccc1 | inactive |
| CCOCC(=O)NC1CCc2cc(OC(=O)COCC)c(OC)c(OC)c2-c2ccc(SC)c(=O)cc21 (centres undefined) | active: 0.082 µM |
| O=C(Nc1ccn(CCCNCc2ccc3[nH]ccc3c2)c(=O)n1)OCc1ccccc1 | inconclusive: 32.6 µM [activator, single point] |
| O=C1NC(c2ccccc2)=C(c2nc3ccccc3s2)C(c2ccc(F)cc2)N1 (centres undefined) | inactive |
| CCOc1ccccc1Nc1ccnc2cc(Cl)ccc12 | inconclusive: 16.4 µM [activator, single point] |
| O=C(Nc1ccccc1)OCc1cc(-c2ccc(Cl)cc2)on1 | inconclusive: 20.6 µM [activator, single point] |
| COc1ccccc1C1(CCNS(=O)(=O)c2ccc(C)cc2)CCOC(C(C)C)C1 (centres undefined) | inconclusive: 23.1 µM [activator, partial curve, poor fit] |
| COc1ccccc1C1(CCN=Cc2ccc(N(C)C)cc2)CCOC(C)(C)C1 (centres undefined) | inconclusive: 16.4 µM [activator, single point] |
| COc1ccc(/C=C/C(=O)NNc2c(F)c(F)cc(F)c2F)cc1OC | inconclusive: 0.184 µM [activator, full curve, poor fit] |
| CS/C(=C\[N+](=O)[O-])Nc1ccc(OC(F)(F)F)cc1 | inconclusive: 20.6 µM [activator, single point] |
| C/C(=N\NC(=O)c1cccc2ccccc12)c1ccccn1 | inconclusive: 11.6 µM [activator, partial curve, poor fit] |
| COC(=O)CCS(=O)(=O)c1nc(-c2ccccc2)cc(C(F)(F)F)n1 | inconclusive: 4.11 µM [activator, full curve] |
| Nc1nc2nc(-c3ccc(OCc4ccccc4)cc3)cc(C(F)(F)F)n2n1 | inconclusive: 2.59 µM [activator, partial curve] |
| O=C(Nc1nc(-c2ccccn2)cs1)c1ccccc1-n1cnnn1 | inconclusive: 3.66 µM [activator, full curve, poor fit] |
| CCCCC(=O)Nc1cccc(-c2cn3ccsc3n2)c1 | inconclusive: 32.6 µM [activator, partial curve, poor fit] |
| CCN(CC)C(=O)Cn1cc(C(=O)C(=O)NCc2ccccn2)c2ccccc21 | inconclusive: 0.184 µM [activator, full curve, poor fit] |
| CN1c2ccccc2C(=O)/C(=C\Nc2ncccn2)S1(=O)=O | inconclusive: 2.31 µM [activator, partial curve] |
| O=C(OCc1cc(=O)n2ccsc2n1)c1ccc(OC(F)F)cc1 | inconclusive: 29.1 µM [activator, single point] |
| CCOc1ccc(NCC(=O)Nc2ccc(Cl)cc2C)cc1 | inconclusive: 20.6 µM [activator, single point] |
| COCC(=O)OCC(=O)Nc1ccccc1-c1ccccc1 | inconclusive: 6.51 µM [activator, single point] |
| O=S(=O)(c1ccc(Oc2ccc(F)c(Cl)c2)nc1)N1CCOCC1 | inactive |
| COc1ccccc1/C=N/NC(=O)c1cccc2ccccc12 | inconclusive: 29.1 µM [activator, single point] |
| O=C(CCCN1C(=O)/C(=C\c2ccccc2)SC1=S)Nc1ccccc1O | inconclusive: 18.4 µM [activator, single point] |
